In PubChem BioAssay AID2685 (National Center for Advancing Translational Sciences (NCATS), 2010) one finds cell number change and AC50 data, which are given here for 60 compounds.

Some of the results follow. Shown are side measurements of this screen, not its main read-out; they come without a call. Compounds called inactive in the main read-out are mostly missing here. The note in brackets gives the kind of curve behind each potency; many fits are weak.

The experiment in a line: qHTS Assay for Lipid Storage Modulators in Drosophila S3 Cells.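 For cell number change: cells counted by Cell Tracker Red CMTPX staining in the red channel.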 Particulars: BODIPY lipid droplet fluorescence, 18-24 h; for cell number change: measured here: cell count max response, cells fed with added oleic acid. In a few lines:
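Drosophila S3 cells got compounds at several concentrations plus oleic acid (400 uM solution). Laser-scanning cytometry with 488 nm excitation read lipid droplets at 500-530 nm and cells at 575-640 nm. Percent activity was relative to 20 uM Triacsin C.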

Where [1] appears, read: measured here: cell number channel AC50, cells fed with added oleic acid.
The mark [2] stands for this setting: measured here: lipid fluorescence (Fed channel) AC50, cells fed with added oleic acid.

One may read the AC50 as the concentration giving half of the maximal activity seen. For the compound `CCN(CC)C(=O)c1cccc(NC(=O)c2cc(-c3ccccn3)nc3ccccc23)c1`, the cell number change was 2.02%. Also, the AC50 under setting [1] was 3.66 µM [rising, partial curve, poor fit]. In addition, the AC50 under setting [2] was 1.84 µM [rising, partial curve].

Regarding `Cc1cc(C(=O)CSc2nnc(-c3ccccc3F)o2)c(C)n1Cc1cccs1`, the cell number change was found to be 55.7%. Moreover, the AC50 under setting [1] was 20.6 µM [rising, single point].

`CC1=NN(c2ccc(C)cc2C)C(=O)C1C(c1ccccc1)C1C(=O)N(c2ccc(C)cc2C)N=C1C` (stereo unspecified): the cell number change is 127%.

On to `O=C(COc1ccc(-n2ccnc2)cc1)Nc1cccc(Cl)c1`, for which the cell number change came out at 52.5%. Also, under setting [1], the AC50 was 29.1 µM [rising, single point]. Besides, the AC50 under setting [2] was 20.6 µM [rising, single point].

For the compound `CCN1CSC(=S)N(Cc2ccccc2)C1`, the cell number change is -22.2%. The AC50 under setting [2] was 5.17 µM [falling, full curve].

`C=CCc1cc(OC)ccc1OCCOCCN1CCc2ccccc2C1`: the cell number change was -22.8%.

For `CCOC(=O)C1CCCN(C(=O)N2CCOCC2)C1` (stereo unspecified), under setting [2], the AC50 is 6.51 µM [rising, single point].

As to `CC1CN(C(=O)c2cccs2)CCN1C(=O)c1cccs1` (stereo unspecified), the cell number change came out at 0.0701%.

Consider `CCOC(=O)c1c(CN2CCOCC2)n(-c2ccccc2)c2cc(Br)c(O)cc12`, for which the cell number change was -7.14%. In addition, under setting [2], the AC50 is 0.651 µM [falling, full curve].

Regarding `O=C(c1cnsn1)N1CCCC(Nc2ccc(F)c(F)c2)C1` (stereo unspecified), the cell number change was -10.1%.

In the case of `CCC(C)[C@H](NC(=O)Nc1cccc(Cl)c1)C(=O)O` (stereo partly specified), the cell number change is -92.9%. For the same compound, under setting [1], the half-maximal activity concentration (AC50) was 29.1 µM [falling, single point]. Also, the AC50 under setting [2] was 29.1 µM [falling, partial curve].

With `O=C(CC1C=Cc2ccccc2N1C(=O)c1ccccc1)c1ccccc1` (stereo unspecified), the cell number change is -10%. Further, the AC50 under setting [2] was 0.58 µM [falling, single point].

Take `COCC(=O)N(Cc1ccco1)c1nnc(C2CCOC2)s1` (stereo unspecified): the cell number change is -110%. The AC50 under setting [1] is 6.51 µM [falling, full curve]. Moreover, the concentration at half-maximal activity (AC50) under setting [2] is 29.1 µM [falling, single point].

As to `CN(C)C(=O)CN(C)S(=O)(=O)c1ccc(Cl)cc1`, the cell number change is -26.1%. Further, the AC50 under setting [2] was 0.00461 µM [rising, full curve, poor fit].

As for `CC(CC(=O)Nc1nc2ccccc2[nH]1)n1ccnc1` (stereo unspecified), the cell number change was -30.9%. Under setting [2], the concentration at half-maximal activity (AC50) is 3.66 µM [rising, partial curve, poor fit].

As for `O=C(CCn1c(=O)oc2ccccc21)NCc1ccco1`, the cell number change came out at 3.46%. In addition, under setting [2], the AC50 is 16.4 µM [falling, partial curve, poor fit].

For the compound `Cc1nc(-c2ccc(S(=O)(=O)Nc3ccc(Br)cc3Cl)s2)cs1`, under setting [2], the AC50 is 18.4 µM [rising, single point].

For the compound `CC(C)N(CCCNC(=O)c1nn(C)c2c1CS(=O)(=O)c1ccccc1-2)Cc1ccccc1`, under setting [2], the AC50 is 29.1 µM [rising, partial curve, poor fit].

In the case of `CC(C)C(C(=O)O)N1C(=O)/C(=C/C=C/c2ccco2)SC1=S` (stereo unspecified), the cell number change is -22.7%.

`COc1cccc(-n2c(CCn3nc(C)c([N+](=O)[O-])c3C)n[nH]c2=S)c1`: the cell number change was found to be 2.97%. In addition, under setting [2], the AC50 is 6.51 µM [falling, single point].

For `CCOc1ccccc1N(CC(=O)Nc1ccccc1C(=O)O)S(C)(=O)=O`, the cell number change was -26%. For the same compound, under setting [1], the AC50 was 0.13 µM [falling, full curve, poor fit]. Also, the AC50 under setting [2] is 0.731 µM [falling, full curve].

`CCOC(=O)CC1CCCCN1C(=O)CCCn1nnnc1CN1CCC(C)CC1` (stereo unspecified): the cell number change was -17.7%. For the same compound, the AC50 under setting [2] is 29.1 µM [falling, single point].

For the compound `O=C(CCC(=O)Nc1ccccc1)N/N=C/C=C/c1ccccc1`, the cell number change was -5.3%. The AC50 under setting [2] is 0.731 µM [falling, single point].

Regarding `COc1ccc2c(COC(=O)CCS(=O)(=O)c3ccccc3)cc(=O)oc2c1`, the cell number change came to 12.8%.

As for `O=C(NCCCN1CCCC1=O)c1nnc(Cc2c(F)cccc2Cl)o1`, the cell number change was -29.1%. Moreover, the AC50 under setting [2] is 14.6 µM [falling, partial curve].

Regarding `COc1ccc(/C=N/Nc2nc(N3CCCCC3)nc(N3CCCCC3)n2)cc1[N+](=O)[O-]`, the cell number change was 47.3%. For the same compound, the AC50 under setting [1] is 9.2 µM [rising, partial curve]. Besides, the AC50 under setting [2] was 1.64 µM [rising, partial curve].

For the compound `Cc1ccc(/C=C2/SC(=S)N(CCC(=O)N3CCN(c4ccccc4)CC3)C2=O)cc1`, the cell number change was -73%. For the same compound, under setting [1], the AC50 is 32.6 µM [falling, single point]. Under setting [2], the AC50 was 29.1 µM [falling, partial curve].

For `CCOC(=O)C(NC(=O)Nc1ncccn1)(Oc1ccccc1)C(F)(F)F` (stereo unspecified), the cell number change is -9.71%.

Regarding `CC(=O)Nc1ccc(S(=O)(=O)NCC(=O)NCCCc2ccccc2)cc1`, the cell number change worked out at 18.5%. Further, the AC50 under setting [2] is 9.2 µM [falling, partial curve, poor fit].

For `Cc1ccc(NC(=O)COC(=O)CN2CSCC2=O)cc1C`, the cell number change was -0.135%.

For `CCOc1ccc(S(=O)(=O)N2CCOCC2)cc1NC(=O)CN1C(=O)NC2(CCCCC2)C1=O`, the cell number change was -20.6%. The AC50 under setting [2] is 0.00651 µM [falling, full curve, poor fit].

In the case of `CCS(=O)(=O)N1CCC(C(=O)NCc2ccc(F)cc2)CC1`, the cell number change stood at 14.4%.

For the compound `OCc1cn(-c2ccccc2)nc1-c1cccnc1`, the cell number change turned out to be 95.1%. In addition, under setting [1], the half-maximal activity concentration (AC50) is 20.6 µM [rising, single point]. In addition, the AC50 under setting [2] was 18.4 µM [rising, partial curve].

Consider `CCc1ccc(/C=C2/SC(=S)N(CCCC(=O)Nc3ccccc3C(=O)O)C2=O)cc1`, for which the cell number change worked out at 23.8%.

With `Cc1ccccc1N(CC(=O)NC1CCCCC1)C(=O)CCC(=O)Nc1nccs1`, the cell number change was found to be 10%. The AC50 under setting [2] is 2.91 µM [rising, single point].

Consider `CCc1ccc(NC(=O)CCCn2nc(CC)n3c(cc4occc43)c2=O)cc1`, for which the cell number change worked out at 10.3%. Further, the AC50 under setting [2] is 29.1 µM [falling, single point].

Consider `COC(=O)c1ccc2[nH]c(CO)c(-c3ccccc3)c2c1`, for which the cell number change was -12.3%. Moreover, under setting [2], the AC50 is 23.1 µM [rising, single point].

In the case of `O=C(CNC(=O)c1ccc(-c2ccccc2)cc1)OCc1ccc(Br)cc1`, the cell number change was -20%. In addition, the AC50 under setting [2] is 16.4 µM [falling, single point].

In the case of `CCN(CC(=O)Nc1c(F)cccc1F)C(=O)CN1C(=O)C2CCCCC2C1=O` (stereo unspecified), the cell number change is 13.1%. Also, under setting [2], the AC50 is 10.3 µM [rising, partial curve].

For the compound `COC(=O)c1[nH]c2ccccc2c1NC(=O)c1ccccc1F`, the cell number change is 17.6%. For the same compound, the AC50 under setting [2] was 0.092 µM [rising, full curve, poor fit].

On to `COCCn1c(SC)nnc1-c1c[nH]c2ccccc12`, for which the cell number change was found to be 12.7%.

As for `N#Cc1cc(-c2ccccc2)nnc1Sc1ccccc1`, under setting [2], the AC50 was 5.17 µM [rising, single point].

On to `CCOC(=O)C1(CCc2ccccc2)CCN(Cc2cnc(N(C)C)s2)CC1`, for which the cell number change worked out at 21.2%. Further, the AC50 under setting [1] was 0.00461 µM [rising, full curve, poor fit].

As for `CC(/C=N/Nc1nc(C)cc(=O)[nH]1)=C\c1ccccc1`, the cell number change was 12.4%. The AC50 under setting [2] is 6.51 µM [rising, full curve, poor fit].

As to `CN(Cc1ccon1)C(=O)CC1C(=O)NCCN1CC1CCCCC1` (stereo unspecified), the cell number change is 4.65%. Further, the AC50 under setting [2] was 0.146 µM [falling, full curve, poor fit].

In the case of `CCC1=[N+]([O-])C(C)(/C(C)=N\O)N(O)C1(C)C` (stereo unspecified), the cell number change was -66%. The AC50 under setting [1] is 29.1 µM [falling, single point]. For the same compound, the AC50 under setting [2] is 29.1 µM [falling, single point].

With `CCCS(=O)(=O)N1CCN(c2cc3c(cc2[N+](=O)[O-])n(C)c(=O)n3C)CC1`, the cell number change was -17.1%. Further, the AC50 under setting [2] was 0.326 µM [falling, full curve, poor fit].

With `CC(C)(C)NC(=O)N1CCN(c2nc(-c3ccccc3)ns2)CC1`, the cell number change is 5.16%. Besides, the AC50 under setting [1] is 6.51 µM [rising, single point].

For the compound `CC(C)(C)NC(=O)C(c1ccccn1)N(C(=O)c1ccc2c(c1)OCCO2)C1CCCC1` (stereo unspecified), the cell number change is -81.7%. Moreover, the AC50 under setting [1] is 23.1 µM [falling, single point]. For the same compound, the AC50 under setting [2] is 29.1 µM [falling, single point].

In the case of `CCOC(=O)Cc1csc(NC(=O)COc2ccccc2)n1`, the AC50 under setting [2] was 0.411 µM [falling, full curve].

Take `COc1ccccc1N1C(=O)S/C(=C\c2cccs2)C1=O`: the cell number change came to 12.4%. Further, the AC50 under setting [2] was 29.1 µM [rising, single point].

As to `Cc1ccc2nc(-c3cccnc3)c(NC3CCCC3)n2c1`, the cell number change worked out at 72.9%. Also, the AC50 under setting [1] is 16.4 µM [rising, single point].

Consider `COc1ccc(CC(=O)NCc2nnc(SCC(=O)c3ccc(OC)cc3)n2C)cc1`, for which the cell number change is 15.7%.

On to `Cc1cccc(/C=C/c2onc(C)c2S(=O)(=O)N2CCC(C(=O)NC(C)(C)C)CC2)c1`, for which the cell number change was -5.48%.

In the case of `CCn1c(CNC(=O)Cc2ccc(OC)cc2)nnc1SCCOc1ccccc1`, the AC50 is 3.26 µM [rising, single point] under setting [1] and 3.26 µM [rising, partial curve] under setting [2].

For the compound `Nc1nonc1-n1nnc(C(=O)N/N=C/c2ccc(Cl)cc2Cl)c1CN1CCOCC1`, the cell number change worked out at 4.76%. Under setting [1], the AC50 was 0.461 µM [rising, full curve, poor fit]. Besides, under setting [2], the AC50 is 6.51 µM [falling, partial curve].

For `CC(=O)NCCOc1cccc2ccccc12`, the cell number change amounted to 96.5%. Moreover, the AC50 under setting [1] is 25.9 µM [rising, partial curve, poor fit]. Besides, under setting [2], the AC50 was 0.58 µM [rising, single point].

Regarding `COc1nc(Oc2ccc(=O)[nH]n2)nc(N2CCOCC2)n1`, the cell number change was found to be 19.5%. In addition, the AC50 under setting [1] is 0.651 µM [falling, single point]. Besides, under setting [2], the AC50 is 18.4 µM [rising, single point].

For `Cc1ccc(-n2c(=O)[nH]c3cc(C(=O)NC4CCN(Cc5ccccc5)CC4)ccc3c2=O)cc1`, the cell number change was -38.6%. The AC50 under setting [1] was 14.6 µM [falling, single point]. Moreover, the AC50 under setting [2] was 29.1 µM [falling, single point].

In the case of `CCOc1ccccc1/C=N/NC(=O)c1nnn(-c2nonc2N)c1CN1CCC(C)CC1`, the cell number change came to 270%. In addition, under setting [1], the AC50 is 29.1 µM [rising, single point].
